PubChem BioAssay AID1259425 – University of Nebraska Medical Center, 2018
Test: 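Compare each knockdown with KSR1 silencing using changes in marker transcripts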 (primary screen). Cell system: HCT116 human colon cancer cells. Reagent: siRNA pool against human genes, 50 nM siRNA. Read-out: 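mRNA of six signature genes measured together by branched-DNA assay after 50 nM siRNA pool, blank removed, divided by geometric mean of two housekeeping genes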. Direction: BNIP3L mRNA: higher = more BNIP3L transcript after knockdown; NDRG1 mRNA: higher = more NDRG1 transcript after knockdown; BNIP3 mRNA: higher = more BNIP3 transcript after knockdown.
In all, the deposit lists about 14,000 reagents; this is a part drawn at random. Not all columns of the deposit are shown. Reagent sequences are not shown. The record does not give: the time to read-out.

target	BNIP3L mRNA, set 1	NDRG1 mRNA, set 1	BNIP3 mRNA, set 1
TPT1P8	0.0673	0.179	0.334
TNK1	0.112	0.275	0.365
WDR44	0.112	0.291	0.308
MCRS1	0.112	0.758	0.412
ACD	0.134	0.137	0.32
GRHL2	0.0703	1.33	0.39
TAS2R39	0.111	0.186	0.282
F2R	0.352	0.305	0.757
ZNF146	0.0806	0.0695	0.216
OMG	0.0661	0.21	0.246
TMA16	0.135	0.189	0.435
UBL4A	0.0707	0.0693	0.14
JPH1	0.156	0.118	0.199
DSC3	0.0404	0.053	0.258
ECT2	0.0909	0.574	0.407
P2RY12	0.137	0.322	0.311
OSBPL3	0.0903	0.169	0.334
GAL	0.143	0.137	0.343
PIP5KL1	0.177	0.134	0.347
MORN1	0.175	0.141	0.306
CHD2	0.0493	0.12	0.233
OPN1LW	0.232	0.676	0.513
PDF	0.112	0.228	0.34
SPZ1	0.0599	0.172	0.227
CCL19	0.061	0.0889	0.235
TMEM131L	0.107	0.197	0.326
HTR1E	0.0652	0.182	0.242
CBFA2T2	0.24	0.299	0.662
TCTN1	0.199	0.217	0.296
TCF15	0.148	0.115	0.304
TMEM209	0.118	0.144	0.262
SV2B	0.126	0.152	0.246
ANP32E	0.146	0.269	0.275
SNRPB	0.158	0.516	0.208
DMRTB1	0.336	0.822	0.488
TEFM	0.188	0.298	0.286
ST3GAL6	0.074	0.252	0.244
PTBP1	0.0993	0.231	0.287
SNRNP27	0.0724	1.09	0.353
ALAS2	0.0855	0.0635	0.189
MAGED1	0.169	0.376	0.419
EMX2	0.0776	0.433	0.303
NHEJ1	0.181	0.118	0.292
MRPL18	0.0962	0.161	0.312
TXNDC15	0.174	0.192	0.391
PCNX4	0.0788	0.254	0.344
ID2	0.121	0.256	0.742
TBR1	0.107	0.234	0.191
STAT5A	0.0849	0.253	0.287
PIF1	0.0946	0.107	0.254

Records listed so far whose gene name begins with G or g:
target	BNIP3L mRNA, set 1	NDRG1 mRNA, set 1	BNIP3 mRNA, set 1
GRHL2	0.0703	1.33	0.39
GAL	0.143	0.137	0.343
